These results are taken from publication PMC3684612.

Chains of the proteins cited; added tags and fusions are not shown.
UniProt Q9BRF8: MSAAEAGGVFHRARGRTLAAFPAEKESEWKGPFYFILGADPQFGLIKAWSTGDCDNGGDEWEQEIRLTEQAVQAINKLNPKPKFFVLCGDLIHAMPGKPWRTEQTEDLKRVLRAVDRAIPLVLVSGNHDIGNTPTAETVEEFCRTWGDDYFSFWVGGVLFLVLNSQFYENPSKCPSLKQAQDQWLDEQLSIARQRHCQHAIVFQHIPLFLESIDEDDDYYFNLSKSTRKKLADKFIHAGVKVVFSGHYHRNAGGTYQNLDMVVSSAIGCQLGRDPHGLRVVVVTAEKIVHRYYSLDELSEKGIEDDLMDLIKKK
UniProt P31749: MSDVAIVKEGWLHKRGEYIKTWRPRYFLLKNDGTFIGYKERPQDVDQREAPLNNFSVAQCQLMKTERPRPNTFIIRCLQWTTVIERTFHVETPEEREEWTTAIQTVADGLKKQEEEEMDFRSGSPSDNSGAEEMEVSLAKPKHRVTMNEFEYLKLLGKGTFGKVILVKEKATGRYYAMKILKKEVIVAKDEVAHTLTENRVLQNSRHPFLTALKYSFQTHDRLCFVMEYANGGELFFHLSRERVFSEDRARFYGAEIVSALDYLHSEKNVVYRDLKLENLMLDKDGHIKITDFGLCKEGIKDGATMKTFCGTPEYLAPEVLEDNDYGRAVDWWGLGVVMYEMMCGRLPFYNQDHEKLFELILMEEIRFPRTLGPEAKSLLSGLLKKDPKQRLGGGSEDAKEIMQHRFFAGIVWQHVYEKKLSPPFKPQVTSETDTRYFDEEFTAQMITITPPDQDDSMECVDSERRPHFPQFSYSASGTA

Results are given in words; binding and its absence hold for the method and conditions named. In cells and extracts the contact can be indirect. Some results given as binding are weak or reduced against the parent protein; the word gives no strength.

Assay [1] concerns the target complete s transactivated protein 1 (CSTP1), Myc-tagged, from pcDNA3.1 myc/his C-CSTP1 (human) (UniProt Q9BRF8). In words: co-IP; 293T cells cotransfected with Myc-tagged CSTP1 and Flag-tagged Akt plasmids; whole protein lysate immunoprecipitated with anti-CSTP1 antibodies, immunoblot with anti-Flag antibodies (Fig. 7D, low panel). Background: Immunoblotting shows a protein as a band on a membrane.

Assay [2] addresses Flag-tagged Akt (Akt1 in pCMV Tag-2B) (UniProt P31749). Description: co-IP; 293T cells cotransfected with Myc-tagged CSTP1 and Flag-tagged Akt plasmids; total protein immunoprecipitated with anti-Flag antibody, western blot with anti-CSTP1 antibodies (Fig. 7D, up panel).

For “Flag-tagged Akt (Akt1 in pCMV Tag-2B) (from UniProt P31749 1-480) (enzyme)”, the binding result in assay [1] was “binds”.
For “complete s transactivated protein 1 (CSTP1), Myc-tagged, from pcDNA3.1 myc/his C-CSTP1 (from UniProt Q9BRF8 1-314) (enzyme)”, the binding result in assay [2] is given as “binds”.
